No constants are given. Whether binding was seen depends on the method and setting. A result given as binding can be weak or reduced; the word gives no strength.
Target: LAMA4
Test: ForteBio biolayer interferometry; antibody constant at 100 nM, LAMA4 at 3.125-200 nM

binding	Binder
binds	mouse monoclonal antibody 1C1 (antibody, V domains shown) VH: QVQLQQSGAELARPGASVKLSCKASGYTFTNYGISWVKQRTGQGLEWIGAIYPRSGNTYYNEKFKGKATLTADKSSSTAYMELRSLTSEDSAVYFCARERDYGSSYALDYWGQGTSVTVSS VL: DIVMTQSQKFMSTSVGDRVSVTCKASHNVGTNVAWYQQKPGQSPKPLIYSASYRYSGVPDRFTGSGSGTDFTLTISNVQSEDLADYFCQQFNNYPYTFGGGTKLEIKR
binds	mouse monoclonal antibody 19C12 (antibody, V domains shown) VH: QVQLQQSGAELVKPGASVKISCKASGYAFSTYWMNWVKQRPGEGLEWIGQIYPGDGDTNYNGKFKGKATLTADKSSSTAYMQLSSLTSEDSAVYFCARSDGYYDYWGQGTTLTVSS VL: NIVLTQSPASLAVSLGQRATISCRASESVDSYGTSFMHWYQQKPGQPPKLLICLASSLESGVPARFSGSGSRTDFTLTIDPVEADDAATYYCQQNNEDPPTFGAGTKLELKR
